Assay: general procedure: Fmoc solid-phase peptide synthesis; Rink Amide-MBHA resin (Novabiochem); DIC (symmetric anhydride)
Details: oxidative folding step, as determined by HPLC

Ac-CVRLHESCLGQQVPCCDPAATCYCRFFNAFCYCR-NH2 (N-terminal acetyl, C-terminal amide; synthetic AGRP fragment)
oxidative folding yield: greater than 80%
